Test results reported in the supplement of paper PMC4604168 (melanoma cell lines).
This is one part of the list. Repeats are few or missing, and single values can be far off.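 Imaging used 1,536-well plates; nuclei positive for cleaved PARP by antibody were divided by total DNA-stained nuclei to yield the apoptosis fraction. Doses for screening kept most cells viable, and cell lines differ markedly in resting and induced cleaved-PARP levels.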

The compounds below were run on IST-MEL1 (assay: cleaved PARP positive nuclei fraction relative to DMSO control; melanoma cells; higher = more apoptosis). Details: library dose: low library concentration; 72 h.
For CC[C@]1(O)C[C@H]2CN(CCc3c([nH]c4ccccc34)[C@@](C(=O)OC)(c3cc4c(cc3OC)N(C=O)[C@H]3[C@@](O)(C(=O)OC)[C@H](OC(C)=O)[C@]5(CC)C=CCN6CC[C@]43[C@@H]65)C2)C1 [vincristine] + C=C(c1ccc(C(=O)O)cc1)c1cc2c(cc1C)C(C)(C)CCC2(C)C [Bexarotene] (first compound 0.0001 µM, partner dose 2 µM), the “cleaved PARP positive nuclei fraction” value was 59.9%. For O=C(/C=C/c1cccnc1)NCCCCC1CCN(C(=O)c2ccccc2)CC1 + C#Cc1cccc(Nc2ncnc3cc(OCCOC)c(OCCOC)cc23)c1 [erlotinib] (first compound 0.01 µM, partner dose 0.8 µM), the “cleaved PARP positive nuclei fraction” value was 211%. For Cc1cn(-c2cc(NC(=O)c3ccc(C)c(Nc4nccc(-c5cccnc5)n4)c3)cc(C(F)(F)F)c2)cn1 [nilotinib] + CO[C@H]1C[C@@H]2CC[C@@H](C)[C@@](O)(O2)C(=O)C(=O)N2CCCC[C@H]2C(=O)O[C@H]([C@H](C)C[C@@H]2CC[C@@H](OCCO)[C@H](OC)C2)CC(=O)[C@H](C)/C=C(\C)[C@@H](O)[C@@H](OC)C(=O)[C@H](C)C[C@H](C)/C=C/C=C/C=C/1C [everolimus] (first compound 0.2 µM, partner dose 0.02 µM), the “cleaved PARP positive nuclei fraction” value was 157%. In the case of O=C(Nc1cc(C(F)(F)F)cc(C(F)(F)F)c1)c1cc(Cl)ccc1O + Cn1c(Nc2ccc(C(F)(F)F)cc2)nc2cc(Oc3ccnc(-c4ncc(C(F)(F)F)[nH]4)c3)ccc21 [CHIR265] (first compound 0.016 µM, partner dose 0.08 µM), the “cleaved PARP positive nuclei fraction” value is reported as 33.4%.
